Laboratory results from paper PMC3250963 (EJNMMI Research, 2011).
Strings that start with PEPTIDE1 are HELM notation: dots part the residues, brackets hold end groups and non-standard residues.

Experiment: general procedure: Boc solid-phase peptide synthesis; MBHA resin (0.4 mmol/g); DIC
Settings: conjugation step; for final HPLC purity: 214 nm; for final purity (method not given): CZE 214 nm

PEPTIDE1{I.[Dpr].P.C.W.R.[Nle].R.Y.[am]}|PEPTIDE2{I.[Dpr].P.C.W.R.[Nle].R.Y.[am]}$PEPTIDE1,PEPTIDE2,4:R3-4:R3$$$V2.0
final HPLC purity: 99%
final purity (method not given): 96%

PEPTIDE1{I.K.P.C.W.R.[Nle].R.Y.[am]}|PEPTIDE2{I.K.P.C.W.R.[Nle].R.Y.[am]}|PEPTIDE3{[DOTA]}|PEPTIDE4{[DOTA]}$PEPTIDE1,PEPTIDE2,4:R3-4:R3|PEPTIDE1,PEPTIDE3,2:R3-1:R2|PEPTIDE2,PEPTIDE4,2:R3-1:R2$$$V2.0
final HPLC purity: 92%
final purity (method not given): 96%

PEPTIDE1{[DOTA].I.N.P.C.Y.R.L.R.Y.[am]}|PEPTIDE2{[DOTA].I.N.P.C.Y.R.L.R.Y.[am]}$PEPTIDE1,PEPTIDE2,5:R3-5:R3$$$V2.0
final HPLC purity: 97%
final purity (method not given): 96%

PEPTIDE1{I.[Dpr].P.C.W.R.[Nle].R.Y.[am]}|PEPTIDE2{I.[Dpr].P.C.W.R.[Nle].R.Y.[am]}|PEPTIDE3{[DOTA]}|PEPTIDE4{[DOTA]}$PEPTIDE1,PEPTIDE2,4:R3-4:R3|PEPTIDE1,PEPTIDE3,2:R3-1:R2|PEPTIDE2,PEPTIDE4,2:R3-1:R2$$$V2.0
final HPLC purity: 94%
final purity (method not given): 93%

PEPTIDE1{I.[Dpr].P.C.W.R.[Nle].R.Y.[am]}|PEPTIDE2{I.N.P.C.W.R.[Nle].R.Y.[am]}$PEPTIDE1,PEPTIDE2,4:R3-4:R3$$$V2.0
final HPLC purity: 99%
final purity (method not given): 99%

PEPTIDE1{I.K.P.C.W.R.[Nle].R.Y.[am]}|PEPTIDE2{I.K.P.C.W.R.[Nle].R.Y.[am]}$PEPTIDE1,PEPTIDE2,4:R3-4:R3$$$V2.0
final HPLC purity: 88%
final purity (method not given): 84%

PEPTIDE1{[DOTA].I.N.P.C.W.R.[Nle].R.Y.[am]}|PEPTIDE2{[DOTA].I.N.P.C.W.R.[Nle].R.Y.[am]}$PEPTIDE1,PEPTIDE2,5:R3-5:R3$$$V2.0
final HPLC purity: 95%
final purity (method not given): 92%

PEPTIDE1{I.N.P.C.W.R.[Nle].R.Y.[am]}|PEPTIDE2{I.N.P.C.W.R.[Nle].R.Y.[am]}$PEPTIDE1,PEPTIDE2,4:R3-4:R3$$$V2.0
final HPLC purity: 94%
final purity (method not given): 90%

PEPTIDE1{I.[Dpr].P.C.W.R.[Nle].R.Y.[am]}|PEPTIDE2{I.N.P.C.W.R.[Nle].R.Y.[am]}|PEPTIDE3{[DOTA]}$PEPTIDE1,PEPTIDE2,4:R3-4:R3|PEPTIDE1,PEPTIDE3,2:R3-1:R2$$$V2.0
final HPLC purity: 98%
final purity (method not given): 97%
